# In paper PMC9985596:
# The chains behind the UniProt entries cited, without tags or fusion partners.
# UniProt Q9UJX4: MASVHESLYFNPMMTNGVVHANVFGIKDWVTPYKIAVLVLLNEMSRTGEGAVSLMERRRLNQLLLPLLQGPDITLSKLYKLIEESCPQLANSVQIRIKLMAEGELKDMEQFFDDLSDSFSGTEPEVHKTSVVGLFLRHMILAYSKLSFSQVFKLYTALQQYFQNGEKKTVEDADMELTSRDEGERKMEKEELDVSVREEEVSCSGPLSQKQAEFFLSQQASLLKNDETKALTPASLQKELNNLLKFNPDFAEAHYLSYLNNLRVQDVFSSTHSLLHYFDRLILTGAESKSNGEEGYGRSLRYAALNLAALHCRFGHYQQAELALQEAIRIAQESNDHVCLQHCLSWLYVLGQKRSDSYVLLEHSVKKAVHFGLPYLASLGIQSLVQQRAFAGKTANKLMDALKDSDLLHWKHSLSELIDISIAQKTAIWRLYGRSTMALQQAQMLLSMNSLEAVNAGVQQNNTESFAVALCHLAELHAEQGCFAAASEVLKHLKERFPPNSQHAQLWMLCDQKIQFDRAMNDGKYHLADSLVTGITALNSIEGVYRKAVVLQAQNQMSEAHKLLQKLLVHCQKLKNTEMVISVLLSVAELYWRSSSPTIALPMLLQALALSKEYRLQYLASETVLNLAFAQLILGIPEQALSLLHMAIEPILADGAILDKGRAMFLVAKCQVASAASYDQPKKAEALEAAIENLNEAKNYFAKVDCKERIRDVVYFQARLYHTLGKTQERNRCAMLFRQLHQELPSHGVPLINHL
# UniProt Q9H1A4: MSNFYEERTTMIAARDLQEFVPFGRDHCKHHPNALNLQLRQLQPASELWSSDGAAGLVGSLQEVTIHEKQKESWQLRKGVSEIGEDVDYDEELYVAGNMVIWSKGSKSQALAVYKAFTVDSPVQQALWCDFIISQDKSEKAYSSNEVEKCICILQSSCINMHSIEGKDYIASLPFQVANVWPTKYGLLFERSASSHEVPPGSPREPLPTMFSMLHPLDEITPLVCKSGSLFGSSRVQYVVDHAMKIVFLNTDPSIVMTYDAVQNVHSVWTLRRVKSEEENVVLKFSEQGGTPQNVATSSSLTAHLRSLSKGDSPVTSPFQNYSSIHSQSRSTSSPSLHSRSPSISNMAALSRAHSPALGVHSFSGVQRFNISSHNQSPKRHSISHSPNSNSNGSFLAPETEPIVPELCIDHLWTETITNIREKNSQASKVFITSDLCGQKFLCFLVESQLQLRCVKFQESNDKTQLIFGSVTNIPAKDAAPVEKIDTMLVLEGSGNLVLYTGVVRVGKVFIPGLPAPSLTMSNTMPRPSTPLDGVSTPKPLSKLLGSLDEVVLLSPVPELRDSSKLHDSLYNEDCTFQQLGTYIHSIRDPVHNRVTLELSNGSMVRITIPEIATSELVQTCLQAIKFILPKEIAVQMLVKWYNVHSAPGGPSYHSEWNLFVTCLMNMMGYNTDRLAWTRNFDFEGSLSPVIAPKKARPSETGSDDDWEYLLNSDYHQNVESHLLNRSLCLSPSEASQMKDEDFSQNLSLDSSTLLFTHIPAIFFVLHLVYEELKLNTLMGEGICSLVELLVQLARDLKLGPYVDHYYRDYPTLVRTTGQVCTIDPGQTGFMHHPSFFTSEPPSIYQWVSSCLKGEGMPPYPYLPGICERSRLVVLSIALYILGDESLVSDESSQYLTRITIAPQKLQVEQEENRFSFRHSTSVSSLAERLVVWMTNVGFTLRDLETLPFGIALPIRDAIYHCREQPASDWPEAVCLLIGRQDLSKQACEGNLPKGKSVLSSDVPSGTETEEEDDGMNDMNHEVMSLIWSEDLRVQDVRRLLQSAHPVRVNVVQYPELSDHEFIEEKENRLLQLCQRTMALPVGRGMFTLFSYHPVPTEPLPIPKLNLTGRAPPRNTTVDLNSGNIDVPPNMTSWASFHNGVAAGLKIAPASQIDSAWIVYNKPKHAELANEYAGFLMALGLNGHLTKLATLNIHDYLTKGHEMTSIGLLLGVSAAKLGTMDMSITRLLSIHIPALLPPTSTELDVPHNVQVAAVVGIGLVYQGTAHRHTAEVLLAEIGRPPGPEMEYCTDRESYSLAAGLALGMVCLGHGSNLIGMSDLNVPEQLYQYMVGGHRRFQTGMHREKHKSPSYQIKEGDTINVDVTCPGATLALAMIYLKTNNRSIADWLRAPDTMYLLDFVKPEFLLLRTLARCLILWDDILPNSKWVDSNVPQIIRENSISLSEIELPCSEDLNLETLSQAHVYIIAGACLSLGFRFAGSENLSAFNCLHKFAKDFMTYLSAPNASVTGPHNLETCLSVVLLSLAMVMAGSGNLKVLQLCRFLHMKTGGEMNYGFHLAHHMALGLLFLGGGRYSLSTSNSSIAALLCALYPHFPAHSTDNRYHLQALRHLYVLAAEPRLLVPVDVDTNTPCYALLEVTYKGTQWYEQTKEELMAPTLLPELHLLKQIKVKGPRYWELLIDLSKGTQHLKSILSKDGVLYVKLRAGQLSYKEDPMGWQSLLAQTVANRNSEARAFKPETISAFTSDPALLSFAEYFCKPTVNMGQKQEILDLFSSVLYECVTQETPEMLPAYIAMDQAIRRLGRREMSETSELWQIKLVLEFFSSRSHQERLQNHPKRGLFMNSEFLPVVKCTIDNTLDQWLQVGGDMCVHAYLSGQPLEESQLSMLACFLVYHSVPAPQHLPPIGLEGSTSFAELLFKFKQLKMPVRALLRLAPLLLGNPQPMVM
# No constants are given. Whether binding was seen depends on the method and setting. In cells and extracts the contact can be indirect. Some entries that bind do so weakly or less than the wild type. Where a sequence is shown, tags or fusion partners need not be part of it.
# Assays:
# [1] = molecular target: T1, recombinant His-RECQ4(1-492)-FLAG (human) (UniProt O94761); experiment: pull-down; purified recombinant His-RECQ4-FLAG fragments pre-bound to M2 agarose, incubated with the CB fraction of parental HEK293 cells for 4 h at 4 C; washed with FLAG-A-binding buffer; western blot, normalised to the bait (Fig. 4d, e); only the target purified
# T1 sequence: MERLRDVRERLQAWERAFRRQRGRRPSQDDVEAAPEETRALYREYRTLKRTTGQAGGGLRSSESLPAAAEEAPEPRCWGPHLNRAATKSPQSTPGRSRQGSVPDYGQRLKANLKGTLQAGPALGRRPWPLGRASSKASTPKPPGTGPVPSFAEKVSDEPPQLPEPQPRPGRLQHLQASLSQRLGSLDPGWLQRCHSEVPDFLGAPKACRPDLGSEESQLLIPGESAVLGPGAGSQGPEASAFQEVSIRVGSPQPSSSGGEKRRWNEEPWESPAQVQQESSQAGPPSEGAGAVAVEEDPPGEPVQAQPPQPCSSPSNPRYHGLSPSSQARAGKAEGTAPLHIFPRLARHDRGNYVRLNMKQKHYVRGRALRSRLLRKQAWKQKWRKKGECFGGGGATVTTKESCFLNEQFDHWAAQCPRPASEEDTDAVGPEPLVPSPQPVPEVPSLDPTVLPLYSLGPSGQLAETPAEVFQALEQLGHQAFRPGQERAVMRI
# [2] = molecular target: T2, FLAG-tagged RECQ4 Q757X mutant (human) (UniProt O94761); experiment: co-IP; FLAG-RECQ4 WT, Q757X or Q757X-ID co-immunopurified from whole-cell extracts of stable, asynchronous RECQ4 KD HEK293 cells; western blot, normalised to the bait (Fig. 5a, f)
# T2 sequence: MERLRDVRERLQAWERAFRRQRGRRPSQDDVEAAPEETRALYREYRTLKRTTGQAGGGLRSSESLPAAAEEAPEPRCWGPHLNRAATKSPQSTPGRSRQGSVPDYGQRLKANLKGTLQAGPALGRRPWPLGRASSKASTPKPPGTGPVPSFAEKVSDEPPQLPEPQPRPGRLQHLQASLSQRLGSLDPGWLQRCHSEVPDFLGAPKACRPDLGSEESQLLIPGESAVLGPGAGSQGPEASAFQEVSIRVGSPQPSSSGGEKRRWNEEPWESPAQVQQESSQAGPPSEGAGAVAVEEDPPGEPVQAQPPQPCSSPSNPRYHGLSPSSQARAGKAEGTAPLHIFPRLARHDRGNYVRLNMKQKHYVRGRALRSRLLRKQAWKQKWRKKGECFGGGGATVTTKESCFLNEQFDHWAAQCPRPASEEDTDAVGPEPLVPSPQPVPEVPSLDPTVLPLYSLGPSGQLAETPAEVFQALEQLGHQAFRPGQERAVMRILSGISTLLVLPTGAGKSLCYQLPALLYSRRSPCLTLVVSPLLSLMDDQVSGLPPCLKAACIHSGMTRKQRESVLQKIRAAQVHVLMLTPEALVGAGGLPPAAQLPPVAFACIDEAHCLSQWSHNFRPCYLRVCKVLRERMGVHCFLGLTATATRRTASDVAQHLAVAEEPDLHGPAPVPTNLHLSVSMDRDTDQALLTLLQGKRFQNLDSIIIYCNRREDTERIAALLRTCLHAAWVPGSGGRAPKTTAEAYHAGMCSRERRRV
# [3] = molecular target: T3, recombinant His-RECQ4(1-240)-FLAG (human) (UniProt O94761); experiment: pull-down; purified recombinant His-RECQ4-FLAG fragments pre-bound to M2 agarose, incubated with the CB fraction of parental HEK293 cells for 4 h at 4 C; washed with FLAG-A-binding buffer; western blot, normalised to the bait (Fig. 4d, e); only the target purified
# T3 sequence: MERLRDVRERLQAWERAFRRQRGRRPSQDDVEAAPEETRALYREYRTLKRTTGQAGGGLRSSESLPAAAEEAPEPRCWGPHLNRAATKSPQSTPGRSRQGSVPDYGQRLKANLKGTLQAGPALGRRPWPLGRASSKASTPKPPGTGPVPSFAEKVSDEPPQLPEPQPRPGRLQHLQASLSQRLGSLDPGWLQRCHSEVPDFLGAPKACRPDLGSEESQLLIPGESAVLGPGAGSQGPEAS
Substance,binding [1],binding [2],binding [3]
APC5 (from UniProt Q9UJX4 1-755),binds,binds,
APC1 (from UniProt Q9H1A4 1-1944),binds,binds,binds
